The source of these data is paper PMC8964110.

These are yes or no findings as the source states them, for the method shown. In cells and extracts the contact can be indirect. Here binding means that the protein was enriched with, or labelled near, the bait; the list need not be complete.

The labels stand for the following.
B1: Pyruvate, phosphate dikinase (protein, UniProt P37213 1-885)
chain: MQRVYAFEDGDGTNKKLLGGKGAGLCTMTKIGLPVPQGFVITTEMCKQFIANGNKMPEGLMEEVKKNMQLVEKKSGKVFGGEENPLLVSVRSGAAMSMPGMMDTILNLGLNDKTVVALAKLTNNERFAYDSYRRFVSLFGKIALNVDDEVYDKTLENKKVEKGVKLDTELDANDMKELAQVFIKKTEEFTKQPFPVDPYAQLEFAICAVFRSWMGKRAVDYRREFKITPEQADGTAVSVVSMVYGNMGNDSATGVCFTRDPGTGENMFFGEYLKNAQGEDVVAGIRTPQIISKMAEDADLPGCYEQLLDIRKKLEGYFHEVQDFEFTIERKKLYMLQTRNGKMNATATVRTGVDMVEEGLITKEQAIMRIAPQSVDQLLHKNMPANYAEAPLVKGLPASPGAATGAVVFDADDAVEQAKGKKVLLLREETKPEDIHGFFVAEGILTCRGGKTSHAAVVARGMGKPCVSGAEGIKVDVAKKIAKIGSLEVHEGDILTIDGSTGCVYKGEVPLEEPQVGSGYFGTILKWANEIKKIGVFANADLPSAAKKALEFGAEGIGLCRTERMFNAVERLPIVVKMILSNTLEERKKYLNELMPLQKQDFIGLLKTMNGLPVTVRLLDPPLHEFLPTLEELMREIFEMKLSGKTEGLAEKEVVLKKVKELMEVNPMIGHRGIRLGTTNPEIYEMQIRAFLEATAEVIKEGIKTHAEIMIPNVTEVNELINLRKNVLEPVHEEVEKKYGIKVPFMYGTMVECVRAALTADKIATEASFFSFGTNDLTQGTFSYSREDSENKFIPKYVELKILPANPFEILDRPGVGEVMRIAVTKGRQTRPELLVGICGEHGGEPSSIEWCHMIGLNYVSCSSYRIPVARIAAAQAQIRHPREN
B2: EhRabX11 (protein, UniProt A0A8U0WPU0 1-209)
chain: MEESKEALQLKIIVIGEPSVGKTSTIRKYCHGVFDQLYRATIGVDFAVKFTTVDERDVELRLWDIAGQEKYIAMTRVYYNGAHGAIIMYDLTNPDTFAATDRWKEDLENKVKFNEQSIPALLVGNKADCLSEEELKKAQEDLMAKVAEQKYSDGILTSAKSGLAVEEAMAKITRLIFKQFSDLVNPKPDANNVDISKQGQQTQKEGGCC
B3: EhUbI1 (protein, UniProt C4M760 1-77)
chain: MQIFVKTLTGKTITLEVEPNDSIDAIKAKIQEKEGIPPDQQRLIFAGKQLEEGKTLSDYNIQKESTLHLVLRLRGGY
B4: Uncharacterized protein (EHI_016130) (protein, UniProt C4MAN6 1-510)
chain: MSNKQTDIKTKDEVVQIERCTTETYQLMKKIIPNYKKLADACEGYFKAQLVMIKATDTLYNCLEAMADTSLEEGGQQTHPDLQVGVKNMSNVLKMWKENLMSVCDEFRSTCSCIRGDVTTFPKEIEAKEKEYKSQKKKEVDEVSKVEKKLSSVSKNTKLQAKDPKALADAITAVTKKESEYQHFLMNGLKDSLSMFRGTYGQLFECFRKLFICKTDTDNKSQLIISANMEDMQKLIKTSKGLPQKYRSLVTMKKQSMINTTWLSPELKEILKAAGVKPKHLADPTIVETLIQTVKQAVQQGTVPKDLLDQLEASRANKEDKLSKVIEVEDIVVPDRRPPPTPIARSSPRTAAPTTPAVATAPVPAAPADIPPPPPPTAPMMDNIPPPPPVAPAIGNPPPPPPIAPPKQAGNPPPPPPIRSTNSAGNPPPPPPARQTAAPAPANGNLLADIRSGITLRSAADRKLDTAAPVVSDAGKQDLTSMLRKAMEVRRNDIADDEDDDDDDDDEWSD
B5: EhVps45A (protein, UniProt A0A8U0WPJ0 1-529)
chain: MNVIHALQEYLNFTFSETPGMKALIMDSDTIPVVSILFGMTEIIQKEVYLVQQLSDQTRDTLPHLNAICLLRPTKENMELLRKELNNPKYGKYYLFFTNFLDSTQISLLSQSDVHEVVQKVMELYVDYMPVNDDLFISSCPNYYSVNGPNSMKNEQKTIDSLMALCLSLKKNPAIRYQQNSELSKRIAEGLTQGLERQKKIFGPMNGTTLLILDRSFDPITPLLTQWTYQAMIHEFIGIENGKIILDNKPIILSNDSFFNEHMYLLFSDITDSIIASVNELTKKAGVASKQYRSLEEMKETIEQIPQLKKESAGVKKHLGIMNVINKTVSRRKMLDVSRLEQDIVCGSGRQELYQNVIQFFEGDYEVEDKLRVGLLYALKYEDKAQDIIEELTIKGIPKDRIQLIDIVLRYAGSSKRPIEIFNKVKSIVGFVKKSVAGVENVFVQHKPVLEQLYDPLINQQLLEKFPFCRGSSANGREFIIYIVGGVTLEEEVSIATRNRTNPTQKFIIGGSDLLNSSKFIEQLETMKK
B6: EhRabC1 (protein, UniProt A0A8U0WNZ6 1-204)
chain: MAAKAHYDHLFKILIIGESGVGKTAIMQRLCEDTYDNVYISTVGVDFKPKILNIRNKTVKMQIWDTAGQERFRNITASYYRNAQGVIIVYDVNDIGTLEKVDSWFNEVKERTGANPPVVFLVGNKSDSPNPTVSKEMVKNVVNNLGGIPDYNCSAKEGTGVNEIFNALAEAMMDKSNQGGNGSTKPNELTNLTDKPKDNGKGCC
B7: Uncharacterized protein (EHI_069560) (protein, UniProt C4LWP4 1-207)
chain: MIFLLLPLLVFSQECVLRDINYSKLTKPKNDPYLLSYPAYTFHFNICGPVDDNGNVAVAIADDVTYSLGKYSTQEPFTDNNGNGFKYAGGSKSRSGNLWSSSIYIKCDNTVTKDIIQVSTADFDKATVSFEIRGPSACVVEESKKSLSPVAIIFIIIAVIVCVILIVFGSWCLVNFFIGKRGIAVLPLYSIFHKQQDAFATEKANLI
B8: p21-activated kinase (protein, UniProt A0A8U0WPI5 1-467)
chain: MKSWKRKWVRLTKTDVYVFDSPTKNTPILTIPLQRTVVSLVASMGDSYLKLDSKKLGKQFIFNAPCKDQAERWVTAINNTIDAGLTRPSGMTQVVHVDFDPNLGYIGLPPEWERFLNEGGITTDEYKKNKDVVDDVLNFQIQRQGDKTNLPSVPAPISQPKQSKAVVEPLPEDVEKVQLKDVTIEQDPREFYSDFEKIGEGASGEVFSAKRKADGIVVALKQMEVNNDNEKLIATEISLMKGCKHDNVVTFYEAFYLPAKKLMWMSMEYMDGGCLTDILENHDIIEMTEPQIAYVCRETLRALNFIHGLHCIHRDIKSDNMLLTNDGHVKLADFGYAAQLNQKQKNRNTVVGTPYWMAPELIRGHDYGVKIDIWSLGIMVMEMAEGDPPYMEFPPLRALFLITTKGIPPLKNAEKWSRDMNGFVARCLETIPDNRADSEELLQHPFMKIACENTDFAQLIADVRKLA
B9: Rab GDP dissociation inhibitor alpha (protein, UniProt B1N309 1-439)
chain: MDDTYDTIVLGTGLKECILSGLLSVDGKKVFHLDKNDYYGGASASLNLKQLFDTFANGKPAPESLGRPRDYNIDIIPKFIMSSGEMVNLLLHCNVHNYLQFRAIHGSYVFTKGKVYKIPATVAETVSTPLLGFFEKNRFKNFLTYLQNYDENKPETHKGRNLKTMTMAQLFKDFSLDDATIEFVGHTIALYREDSYLTRPAIETVKKIVLYFESLSRFQKSPYIYPEYGLGELPQAFARMSALYGGTYMLRAKIQEIVFENGRVAGVKFESGEVAKCSNIIADPSYFPDKVKKVGQVIRAICILNHPVANTDNAESCQIIMPQKQVGRKSDIYISVLSGNNQVCPKGKYIAIVGTTVETSNPEKEVEVGLKLLQPIEQQFISITDSFEPINDPKQDGVYITKSYDATSHFETTVEDCLEMYTTITGKKLEMKGPNETSQ
B10: GTP-binding protein (SAR1) (protein, UniProt C4M4L8 1-190)
chain: MWIWEWFWNLLADLGLAYKTGKMLFLGLDNAGKTTLLHLLKDGKVSQHIPTQQPTMEELVMGNIKFNTYDLGGHTPARKVWKTYCTEVDAVIYIVDCAAPERFGESKKELDSLLNDEMLQNTPFLILGNKIDIPGAVSEAQLREAMGLTHTTGKGNVTCEGIRPIEVFMSSIVNRQGYPEGFKWISQYMK
B11: LIM zinc finger domain containing protein (protein, UniProt C4LWF5 1-145)
chain: MSAKKCFACGKSAYPLERITAGGKDYHNACFKCKECGLHLTLKNFFFDQGTQAVYCKNHVPKATATAVTDSIAIKQALNAPKKEAENIGTVQKGAGGKPHSVVFGDSSERREEAAPTEQPQEEVHEEVHEEEVHEEEVHEEEEGF
B12: Protein disulfide isomerase (protein, UniProt C4MB38 1-368)
chain: MLLKTNQKISSVNVEHCQNTDKRELMKYKVLMKFLLFTLLTFLVSADVVSLNPTNFNTIVDGSKHVFVKFFAPWCGHCKKLAPEYIKLADAYKDKQDIVIAELDCDNKDHKDLCGKFGISGFPTLKFFRKGTTEPIEYEGGRTVEDLSHFIQEKIQPKAPSNVVSVTTATFDSIVMDPTKNVFVKFFAPWCGHCKALAPKYIEVSKMYAGEDDLVVAEVDCTANQETCNKYEVHGYPTLKSFPKGENKKPIAYEGGREVKDFVTYFNTNYGYDRDENGKLGKTAGRIAELDDLAKGFANKENKDEIIKKAEAIEGGAYYVKVMKRIIERGADYVEKEKARINKILENPSMKAKKIDDFTRNLNVLEVF
B13: EhVps35 (protein, UniProt C4M4G0 1-746)
chain: MSKKVQQVDPVTESNQKQNNMAMYTDLMRRAMDHKNYNEALENAYKICEQMNTTNLIPAQYYNLYLVLQQCLSVLDMYLRTDYIADGNDILDLYEEVQTYQCAVARLYLMCIVGSAAVKSKKVGIVVFLKDIIEMSRAVQHPTKGIFLRNYILDCVKSILPSSTTEEPSEGNLINSIEFLLNNFSEMCRLLVRLTQGPQVTEQKVEEQQQLCQVVGKNLMIMSNLDGVSLELYSTNILPRFLEQVLLSRDKVTQDYLYDALIQAFPADYQLATLHLLLHSLGGVVANVGIRRILCSLMERISSYVSANPQIERNMDMFKIFSTHISQIVKTQTLTCEEYVSVYATLAHLVIVWHNEDDAYTQLNAINDNVYDYLTTQQNISIEAANALMSLLQFPFTKYNVLKVIQLRVYPELINLLPYTLRHETHRFVAKKVTEKNHISSTGDIMVLTIRCIETLYQDTKDMTPLNDEELAIDCNLFKTVALSSTVSTESFFDIVREVKNAVKNAGNRRSLMILPTVISMYLRAIPVITDKKDDMFKCVFDILKTLKTLSHFVALKCCVEVGSAAAQAKYSQASYFFETALTMYEDETDIPKEESLKLILSTLASCSLEDDMNEVYIIGCGKFIQLLQDSFQKGKLYCQVSSALFNEQRKVAKQSVSYLQKAVKEAGLCQVAEQNIELLIDILNIYIIHFIRDNSEITAEYINNFANVIKESISQTEIPKLQSYYKETADYIATRTEDKVKQLQL
B14: Rab family GTPase (EHI_164900) (protein, UniProt C4M1Y3 1-264)
chain: MSDTKETVPTNNEEKLDIEPKKDIKEEVKPEEEHKEEEHKEEKPEEVKPEEVKPEEVKPEEVKPEEEKKNESNEQQKVKVIMVGESSVGKTCCMNRYVSNEFAEQTKATIGVGVGSKEVEVEGKHIKLQIWDTAGQERFATLTGNYFRNAMAAIIMFDVSNKESFENIPNWVEQCCKSDGKHIIFIAGNKIDLENRVVSKEEAEEKAKELKLKYFEVSAKTGDGIEDLFNELIKEIMKTPFCNEQEKEGVELDGQKKQKKGGCC
B15: Rho GDP exchange inhibitor (protein, UniProt C4M6L6 1-175)
chain: MSAADIVKNEKDPSLVAYLKSLGIDPDYVPPKDDPRRVVISEFAVLFKEHDPVILKLNTEEDMEKAKKTPIIIKEGAEFKMRVTFRVQHQPVLGLRILNTVSKLGKQVASDEEMLGSYPPKNEFNALELPKNDWNEAPTGMLARGEYKSNVKFYDDDKVTHLQFDYLIKIAKDWD

The target of the assay is EhVps23 (E. histolytica (endogenous in HM1:IMSS trophozoites)). Description: affinity purification with mass spectrometry; immunoprecipitation with α-EhVps23 antibody and protein G-agarose from trophozoite lysates (10 mM Tris-HCl, 50 mM NaCl, protease inhibitors, freeze-thawing; pre-cleared with Protein-G, 2 h at 4°C); precipitate separated by gel electrophoresis, LC-ESI-HDMSE.
As to B1, the binding entry is “binds”.

With B2, the binding entry is given as “binds”.

Take B3: the binding entry is given as “binds”.

As for B4, the binding result was “binds”.

Regarding B5, the binding entry is recorded as “binds”.

With B6, the binding entry is given as “binds”.

On to B7, for which the binding result was “binds”.

Regarding B8, the binding result is listed as “binds”.

Regarding B9, the binding entry is on record as “binds”.

Turning to B10, the binding entry was “binds”.

As for B11, the binding entry is listed as “binds”.

For B12, the binding entry was “binds”.

For B13, the binding result is given as “binds”.

Take B14: the binding entry is on record as “binds”.

With B15, the binding result is “binds”.
